This is an account of results in PMC10426103.

Chains of the proteins cited; added tags and fusions are not shown.
UniProt O95563: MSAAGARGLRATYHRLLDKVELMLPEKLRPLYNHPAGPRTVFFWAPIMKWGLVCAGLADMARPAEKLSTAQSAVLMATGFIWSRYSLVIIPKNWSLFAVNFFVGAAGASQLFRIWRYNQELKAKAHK

These are yes or no findings as the source states them, for the method shown. Binding seen in cells or lysates may run through a third protein. Some entries that bind do so weakly or less than the wild type. For some assays here: Tags and fused reporters may be left off the sequences shown.

One assay has as its target T1, Flag-GCN5L1 (UniProt P78537).
T1 sequence: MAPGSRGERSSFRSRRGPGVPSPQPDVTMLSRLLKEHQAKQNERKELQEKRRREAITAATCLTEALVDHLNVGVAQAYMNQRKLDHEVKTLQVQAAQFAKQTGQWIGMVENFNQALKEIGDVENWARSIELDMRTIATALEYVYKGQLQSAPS
The assay is described as follows: co-IP; 293T cells transfected with Flag-GCN5L1 or Flag-MPC2, lysed with IP lysis buffer, incubated at 4 °C overnight with anti-Flag M2 agarose; washed in PBS; eluted with 1x sample buffer; immunoblot with anti-GCN5L1 or anti-MPC2. For orientation: Immunoblotting shows a protein as a band on a membrane.

Assay [1] concerns the target T2, amino acid synthesis 5-like 1 (GCN5L1) (human (endogenous in HEK-293T)) (UniProt P78537).
T2 sequence: T1 sequence
The assay is described as follows: co-IP; 293T cells harvested with IP lysis buffer; reacted with immobilized antibodies (GCN5L1, MPC2 and IgG) at 4 °C overnight, Pierce Co-IP Kit; eluted with reducing SDS lysis buffer; immunoblot with anti-MPC2 and anti-GCN5L1.

“mitochondrial pyruvate carrier 2 (MPC2) (from UniProt O95563 1-127)”: the binding result (with Flag-GCN5L1; in assay [1]) was “binds” each time.
